# Measurements: the supplement of paper PMC12067093, “Discovery and optimisation of a covalent ligand for TRIM25 and its application to targeted protein ubiquitination” (Chemical Science, 2025)
# By UniProt entry, the sequences of proteins in these tests, tags left out. Where a name states a change or a piece, a line headed by the entry shows the natural chain unless it says otherwise.
# UniProt Q8IY95: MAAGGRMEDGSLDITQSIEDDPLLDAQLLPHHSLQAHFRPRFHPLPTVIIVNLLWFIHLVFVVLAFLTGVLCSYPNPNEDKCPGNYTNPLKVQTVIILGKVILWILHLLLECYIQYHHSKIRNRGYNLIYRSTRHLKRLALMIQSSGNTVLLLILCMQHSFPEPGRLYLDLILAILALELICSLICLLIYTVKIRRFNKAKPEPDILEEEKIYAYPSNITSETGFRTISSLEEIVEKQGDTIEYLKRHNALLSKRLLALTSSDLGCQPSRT
# UniProt Q9NQ34: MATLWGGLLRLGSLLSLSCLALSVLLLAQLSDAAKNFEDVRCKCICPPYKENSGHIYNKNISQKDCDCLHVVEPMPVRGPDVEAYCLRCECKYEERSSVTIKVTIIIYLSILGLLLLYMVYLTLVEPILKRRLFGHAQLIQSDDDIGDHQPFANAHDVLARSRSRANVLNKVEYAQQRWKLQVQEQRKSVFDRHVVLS
# UniProt Q5TGY1: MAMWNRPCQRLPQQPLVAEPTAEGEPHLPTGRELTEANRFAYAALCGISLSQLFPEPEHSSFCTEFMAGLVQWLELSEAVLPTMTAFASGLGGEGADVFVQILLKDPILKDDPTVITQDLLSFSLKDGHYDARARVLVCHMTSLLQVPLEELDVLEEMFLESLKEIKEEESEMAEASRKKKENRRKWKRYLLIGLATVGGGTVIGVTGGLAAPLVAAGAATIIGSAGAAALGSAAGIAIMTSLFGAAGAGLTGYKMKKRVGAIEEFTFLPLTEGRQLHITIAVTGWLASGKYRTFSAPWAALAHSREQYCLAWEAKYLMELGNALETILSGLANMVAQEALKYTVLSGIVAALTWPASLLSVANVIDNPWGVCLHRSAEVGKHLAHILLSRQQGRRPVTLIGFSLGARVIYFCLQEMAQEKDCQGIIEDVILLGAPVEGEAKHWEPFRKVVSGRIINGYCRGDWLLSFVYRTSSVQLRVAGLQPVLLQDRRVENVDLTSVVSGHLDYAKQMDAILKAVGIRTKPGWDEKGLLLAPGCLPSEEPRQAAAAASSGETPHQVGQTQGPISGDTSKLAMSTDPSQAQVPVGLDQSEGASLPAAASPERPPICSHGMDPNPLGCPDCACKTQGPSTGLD
# UniProt Q6NUQ4: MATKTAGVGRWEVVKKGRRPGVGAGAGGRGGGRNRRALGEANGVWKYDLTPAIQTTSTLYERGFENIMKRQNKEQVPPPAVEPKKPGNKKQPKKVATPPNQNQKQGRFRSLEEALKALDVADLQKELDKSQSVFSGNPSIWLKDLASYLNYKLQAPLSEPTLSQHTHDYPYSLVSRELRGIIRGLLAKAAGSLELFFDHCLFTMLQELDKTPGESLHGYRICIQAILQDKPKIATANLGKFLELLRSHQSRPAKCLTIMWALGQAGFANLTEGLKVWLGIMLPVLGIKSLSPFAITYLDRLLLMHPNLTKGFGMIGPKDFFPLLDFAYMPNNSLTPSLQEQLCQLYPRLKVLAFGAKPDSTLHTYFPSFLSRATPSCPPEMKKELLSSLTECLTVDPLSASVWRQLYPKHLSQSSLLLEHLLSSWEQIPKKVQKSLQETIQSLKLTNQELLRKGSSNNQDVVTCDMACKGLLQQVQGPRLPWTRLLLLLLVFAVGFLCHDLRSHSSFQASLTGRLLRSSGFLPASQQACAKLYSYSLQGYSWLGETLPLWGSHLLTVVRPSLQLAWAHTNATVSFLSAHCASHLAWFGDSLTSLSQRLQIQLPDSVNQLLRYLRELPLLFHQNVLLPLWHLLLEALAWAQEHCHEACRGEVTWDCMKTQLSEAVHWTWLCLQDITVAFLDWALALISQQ
# UniProt O94826, whole entry, looked up: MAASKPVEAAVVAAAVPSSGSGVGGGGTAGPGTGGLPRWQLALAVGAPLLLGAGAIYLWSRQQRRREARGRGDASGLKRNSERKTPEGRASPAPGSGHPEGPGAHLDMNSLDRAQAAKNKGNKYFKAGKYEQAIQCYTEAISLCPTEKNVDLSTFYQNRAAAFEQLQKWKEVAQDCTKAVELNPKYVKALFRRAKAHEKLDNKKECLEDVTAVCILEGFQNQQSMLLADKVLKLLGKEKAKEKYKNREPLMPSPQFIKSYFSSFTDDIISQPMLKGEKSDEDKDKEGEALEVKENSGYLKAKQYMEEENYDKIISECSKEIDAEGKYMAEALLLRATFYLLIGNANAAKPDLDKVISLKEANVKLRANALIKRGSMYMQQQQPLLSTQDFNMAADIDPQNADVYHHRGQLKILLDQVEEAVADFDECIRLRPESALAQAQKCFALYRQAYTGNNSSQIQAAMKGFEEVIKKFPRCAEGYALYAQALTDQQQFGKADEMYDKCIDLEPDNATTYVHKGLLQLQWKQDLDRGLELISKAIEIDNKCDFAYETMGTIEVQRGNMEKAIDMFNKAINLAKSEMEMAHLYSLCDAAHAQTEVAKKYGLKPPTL
# UniProt Q9Y320, whole entry, looked up: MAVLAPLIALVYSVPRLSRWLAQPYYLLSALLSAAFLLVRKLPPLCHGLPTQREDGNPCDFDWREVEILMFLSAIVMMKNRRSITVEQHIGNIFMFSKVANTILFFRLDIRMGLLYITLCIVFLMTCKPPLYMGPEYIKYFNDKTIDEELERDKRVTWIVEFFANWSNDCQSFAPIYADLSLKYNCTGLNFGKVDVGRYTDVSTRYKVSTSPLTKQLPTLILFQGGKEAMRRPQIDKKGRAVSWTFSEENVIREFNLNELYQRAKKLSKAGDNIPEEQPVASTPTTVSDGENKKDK
# UniProt Q8WVP5: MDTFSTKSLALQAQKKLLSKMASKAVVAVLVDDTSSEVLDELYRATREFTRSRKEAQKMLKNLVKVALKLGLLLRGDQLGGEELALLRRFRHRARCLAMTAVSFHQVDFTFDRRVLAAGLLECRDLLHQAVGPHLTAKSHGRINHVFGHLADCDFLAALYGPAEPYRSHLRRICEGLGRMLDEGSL
# UniProt Q9Y3A6: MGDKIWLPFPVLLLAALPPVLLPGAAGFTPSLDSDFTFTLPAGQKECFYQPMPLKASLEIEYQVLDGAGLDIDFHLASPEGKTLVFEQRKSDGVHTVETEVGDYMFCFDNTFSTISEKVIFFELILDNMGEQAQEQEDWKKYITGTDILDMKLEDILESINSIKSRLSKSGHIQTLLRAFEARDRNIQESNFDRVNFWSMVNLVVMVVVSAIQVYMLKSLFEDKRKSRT
# UniProt P57088: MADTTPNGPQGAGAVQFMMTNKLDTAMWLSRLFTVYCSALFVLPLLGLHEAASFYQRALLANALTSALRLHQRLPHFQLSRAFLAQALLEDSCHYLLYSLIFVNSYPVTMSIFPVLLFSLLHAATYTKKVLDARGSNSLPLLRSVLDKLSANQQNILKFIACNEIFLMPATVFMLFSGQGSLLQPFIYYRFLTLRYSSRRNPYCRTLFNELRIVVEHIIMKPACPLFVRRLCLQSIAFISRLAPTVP
# UniProt Q9Y3Q3: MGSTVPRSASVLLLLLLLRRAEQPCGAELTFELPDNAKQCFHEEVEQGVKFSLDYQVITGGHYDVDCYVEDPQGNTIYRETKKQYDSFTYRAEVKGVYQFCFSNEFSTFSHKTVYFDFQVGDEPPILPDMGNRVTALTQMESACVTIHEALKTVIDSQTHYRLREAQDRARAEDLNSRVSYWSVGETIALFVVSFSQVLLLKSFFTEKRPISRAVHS
# UniProt Q9NV96: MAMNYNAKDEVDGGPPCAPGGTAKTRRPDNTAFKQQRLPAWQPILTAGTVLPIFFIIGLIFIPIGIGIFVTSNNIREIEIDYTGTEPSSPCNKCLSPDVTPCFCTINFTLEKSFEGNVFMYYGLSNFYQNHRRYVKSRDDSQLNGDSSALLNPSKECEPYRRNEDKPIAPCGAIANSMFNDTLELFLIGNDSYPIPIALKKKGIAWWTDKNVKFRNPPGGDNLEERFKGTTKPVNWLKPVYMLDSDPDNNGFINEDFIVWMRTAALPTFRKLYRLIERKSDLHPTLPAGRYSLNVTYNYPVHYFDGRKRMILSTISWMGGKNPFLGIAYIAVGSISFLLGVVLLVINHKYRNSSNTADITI
# UniProt Q9NUM4, whole entry, looked up: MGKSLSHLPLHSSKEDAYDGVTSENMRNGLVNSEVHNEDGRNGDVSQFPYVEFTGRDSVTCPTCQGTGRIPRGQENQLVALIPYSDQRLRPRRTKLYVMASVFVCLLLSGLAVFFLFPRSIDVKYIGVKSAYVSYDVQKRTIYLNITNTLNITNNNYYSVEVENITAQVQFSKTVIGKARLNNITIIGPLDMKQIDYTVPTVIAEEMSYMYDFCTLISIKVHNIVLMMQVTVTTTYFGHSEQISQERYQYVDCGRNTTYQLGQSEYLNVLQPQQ
# UniProt P21580: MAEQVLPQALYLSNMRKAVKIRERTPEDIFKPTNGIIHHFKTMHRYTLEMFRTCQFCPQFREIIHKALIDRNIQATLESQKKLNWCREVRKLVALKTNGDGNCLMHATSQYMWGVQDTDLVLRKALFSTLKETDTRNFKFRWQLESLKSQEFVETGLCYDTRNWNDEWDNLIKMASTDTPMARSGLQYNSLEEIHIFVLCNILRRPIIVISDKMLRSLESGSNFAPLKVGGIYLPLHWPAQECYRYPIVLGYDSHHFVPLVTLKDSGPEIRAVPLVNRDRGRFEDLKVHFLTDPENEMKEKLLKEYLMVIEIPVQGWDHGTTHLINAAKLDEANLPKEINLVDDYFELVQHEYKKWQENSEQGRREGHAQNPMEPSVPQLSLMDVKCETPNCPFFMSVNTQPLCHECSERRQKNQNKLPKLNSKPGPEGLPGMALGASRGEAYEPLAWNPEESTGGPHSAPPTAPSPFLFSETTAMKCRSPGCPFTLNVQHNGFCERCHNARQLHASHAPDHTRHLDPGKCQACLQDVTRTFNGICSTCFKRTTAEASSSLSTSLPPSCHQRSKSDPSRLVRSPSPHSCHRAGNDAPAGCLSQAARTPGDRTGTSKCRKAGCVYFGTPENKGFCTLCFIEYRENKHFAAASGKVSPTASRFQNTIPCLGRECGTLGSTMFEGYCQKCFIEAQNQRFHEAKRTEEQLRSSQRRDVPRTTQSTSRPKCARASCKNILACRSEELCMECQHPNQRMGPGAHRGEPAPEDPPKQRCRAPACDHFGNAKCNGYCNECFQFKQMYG
# UniProt Q92544: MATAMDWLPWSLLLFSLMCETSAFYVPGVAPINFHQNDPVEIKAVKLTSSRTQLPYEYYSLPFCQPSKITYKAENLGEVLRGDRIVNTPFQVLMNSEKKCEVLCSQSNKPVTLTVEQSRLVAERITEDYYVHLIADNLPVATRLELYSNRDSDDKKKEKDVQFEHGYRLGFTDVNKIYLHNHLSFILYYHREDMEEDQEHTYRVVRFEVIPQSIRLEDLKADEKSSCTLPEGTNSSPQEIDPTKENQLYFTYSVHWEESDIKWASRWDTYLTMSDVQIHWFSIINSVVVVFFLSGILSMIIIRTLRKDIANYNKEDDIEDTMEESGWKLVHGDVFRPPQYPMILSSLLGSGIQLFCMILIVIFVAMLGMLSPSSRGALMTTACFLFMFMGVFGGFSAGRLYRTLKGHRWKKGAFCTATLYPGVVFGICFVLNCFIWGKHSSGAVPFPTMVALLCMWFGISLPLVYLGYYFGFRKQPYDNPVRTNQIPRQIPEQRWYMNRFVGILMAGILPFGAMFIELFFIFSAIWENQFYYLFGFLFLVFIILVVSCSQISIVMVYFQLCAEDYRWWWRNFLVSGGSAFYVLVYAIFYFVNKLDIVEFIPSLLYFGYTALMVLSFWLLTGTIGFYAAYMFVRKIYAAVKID
# UniProt O14787: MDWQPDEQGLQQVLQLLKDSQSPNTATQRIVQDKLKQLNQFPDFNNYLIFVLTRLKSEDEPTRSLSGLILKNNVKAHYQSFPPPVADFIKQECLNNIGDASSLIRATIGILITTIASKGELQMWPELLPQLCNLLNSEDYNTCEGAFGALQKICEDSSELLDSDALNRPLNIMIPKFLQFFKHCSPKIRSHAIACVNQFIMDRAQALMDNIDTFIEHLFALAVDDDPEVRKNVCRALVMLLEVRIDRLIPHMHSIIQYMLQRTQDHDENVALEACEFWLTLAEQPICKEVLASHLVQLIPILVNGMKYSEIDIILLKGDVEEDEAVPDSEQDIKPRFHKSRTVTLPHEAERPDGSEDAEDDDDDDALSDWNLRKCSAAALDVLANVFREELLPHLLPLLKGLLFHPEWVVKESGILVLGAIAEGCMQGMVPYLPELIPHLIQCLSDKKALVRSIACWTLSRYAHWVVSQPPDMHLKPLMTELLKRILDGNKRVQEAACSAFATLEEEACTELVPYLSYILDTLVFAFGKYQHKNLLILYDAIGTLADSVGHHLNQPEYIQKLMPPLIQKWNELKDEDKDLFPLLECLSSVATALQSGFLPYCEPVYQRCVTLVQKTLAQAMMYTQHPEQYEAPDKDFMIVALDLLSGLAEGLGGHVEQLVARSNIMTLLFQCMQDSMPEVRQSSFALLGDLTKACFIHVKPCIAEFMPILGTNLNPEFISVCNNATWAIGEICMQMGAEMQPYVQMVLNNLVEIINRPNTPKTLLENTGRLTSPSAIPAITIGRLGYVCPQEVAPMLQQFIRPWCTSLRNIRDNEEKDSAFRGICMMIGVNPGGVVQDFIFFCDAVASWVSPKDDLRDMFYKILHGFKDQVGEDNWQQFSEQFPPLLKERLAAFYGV
# The list shows a part of the results.
# Compound: CC1Cc2ccccc2N1C(=O)C1CCCN(C1)C(=O)CCl (mixture of isomers) [TRIM25 ligand 11 (diastereomer mixture)]
# Test: probe-labelled cysteine peptide fold change vs DMSO (competition) (log2 fold change); higher = less target engagement (more negative = stronger competition)
# Settings: 10 µM; THP-1; incubation time: 4 h
# 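Note: competitive chemoproteomic profiling in live THP-1 cells with an iodoacetamide desthiobiotin (IA-DTB) probe, comparing probe-labelled peptide intensities in compound-treated cells against DMSO-treated controls.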
row,Target,probe-labelled cysteine peptide fold change
1,TNS3_Q68CZ2_88_MCTICK (UniProt Q68CZ2),-0.134
2,TMEM192_Q8IY95_266_LLALTSSDLGCQPSRT (UniProt Q8IY95),-0.0314
3,TOP3B_O95985_522_HGIGTDASIPVHINNICQR (UniProt O95985),-0.0303
4,TLN1_Q9Y490_1661+1671_APGQLECETAIAALNSCLR (UniProt Q9Y490),-0.336
5,TMEM9B_Q9NQ34_66+68_DCDCLHVVEPMPVR (UniProt Q9NQ34),0.267
6,TOP2B_Q02880_204_FTVETACK (UniProt Q02880),-0.00659
7,TMCO4_Q5TGY1_423_DCQGIIEDVILLGAPVEGEAK (UniProt Q5TGY1),-0.359
8,TOMM40_O96008_74+76_TPGAATASASGAAEDGACGCLPNPGTFEECHRK (UniProt O96008),0.168
9,TLN1_Q9Y490_243_ACEFAGFQCQIQFGPHNEQK (UniProt Q9Y490),0.073
10,TMEM214_Q6NUQ4_392_ELLSSLTECLTVDPLSASVWR (UniProt Q6NUQ4),-0.0687
11,TOMM70_O94826_144_YEQAIQCYTEAISLCPTEK (UniProt O94826),0.12
12,TMX2_Q9Y320_46_KLPPLCHGLPTQR (UniProt Q9Y320),-0.0692
13,TOR2A_Q5JU69_43_CTLGAFCECDFRPDLPGLECDLAQHLAGQHLAK (UniProt Q5JU69),0.195
14,TNFAIP8L1_Q8WVP5_153_INHVFGHLADCDFLAALYGPAEPYR (UniProt Q8WVP5),-0.237
15,TLN2_Q9Y4G6_1204_AVSHSLNNCVNCLPGQK (UniProt Q9Y4G6),0.0384
16,TLN1_Q9Y490_29_TMQFEPSTMVYDACR (UniProt Q9Y490),0.051
17,TMEM192_Q8IY95_266_RLLALTSSDLGCQPSR (UniProt Q8IY95),0.0694
18,TMED5_Q9Y3A6_107_KSDGVHTVETEVGDYMFCFDNTFSTISEK (UniProt Q9Y3A6),-0.122
19,TOLLIP_Q9H0E2_106_VIHCTVPPGVDSFYLEIFDER (UniProt Q9H0E2),-0.0586
20,TMEM33_P57088_204_RNPYCR (UniProt P57088),0.123

row,Target,probe-labelled cysteine peptide fold change
1,TMED3_Q9Y3Q3_101_GVYQFCFSNEFSTFSHK (UniProt Q9Y3Q3),0.192
2,TOPBP1_Q92547_60_SLYICDPFSGVVFDHLKK (UniProt Q92547),-0.305
3,TOMM70_O94826_588_SEMEMAHLYSLCDAAHAQTEVAK (UniProt O94826),-0.0764
4,TNRC18_O15417_2602_NCSAASSR (UniProt O15417),-0.131
5,TLN1_Q9Y490_1927_VQELGHGCAALVTK (UniProt Q9Y490),0.12
6,TMEM30A_Q9NV96_157_ECEPYR (UniProt Q9NV96),0.0677
7,TMEM87B_Q96K49_139_NENLDCNSDSQVFPSLNNK (UniProt Q96K49),0.185
8,TMEM106B_Q9NUM4_253_YQYVDCGR (UniProt Q9NUM4),0.0737
9,TNRC18_O15417_2921_CLVVGLEQYEQMLK (UniProt O15417),-0.133
10,TLN1_Q9Y490_2408_MVAAATNNLCEAANAAVQGHASQEK (UniProt Q9Y490),0.148
11,TNFAIP3_P21580_158_SQEFVETGLCYDTR (UniProt P21580),-0.00411
12,TOP2B_Q02880_426_AASNCGIVESILNWVK (UniProt Q02880),-0.12
13,TMEM30A_Q9NV96_157_ECEPYRR (UniProt Q9NV96),-0.11
14,TM9SF4_Q92544_104_KCEVLCSQSNKPVTLTVEQSR (UniProt Q92544),0.0846
15,TMPO_P42166_341_SGIQPLCPER (UniProt P42166),-0.0437
16,TMEM33_P57088_232_LCLQSIAFISR (UniProt P57088),-0.128
17,TLN2_Q9Y4G6_1663_ECDYSIDGINR (UniProt Q9Y4G6),0.244
18,TMA16_Q96EY4_162_KICANDAIPK (UniProt Q96EY4),-0.223
19,TOP2B_Q02880_1018_LQTTLTCNSMVLFDHMGCLK (UniProt Q02880),0.0555
20,TNPO2_O14787_805_LGYVCPQEVAPMLQQFIRPWCTSLR (UniProt O14787),-0.219

# Same assay, conditions: 50 µM; THP-1; incubation time: 4 h
row,Target,probe-labelled cysteine peptide fold change
1,TNS3_Q68CZ2_88_MCTICK (UniProt Q68CZ2),-0.0632
2,TMEM192_Q8IY95_266_LLALTSSDLGCQPSRT (UniProt Q8IY95),-0.0966
3,TOP3B_O95985_522_HGIGTDASIPVHINNICQR (UniProt O95985),0.064
4,TLN1_Q9Y490_1661+1671_APGQLECETAIAALNSCLR (UniProt Q9Y490),-0.266
5,TMEM9B_Q9NQ34_66+68_DCDCLHVVEPMPVR (UniProt Q9NQ34),0.152
6,TOP2B_Q02880_204_FTVETACK (UniProt Q02880),0.0527
7,TMCO4_Q5TGY1_423_DCQGIIEDVILLGAPVEGEAK (UniProt Q5TGY1),-0.457
8,TOMM40_O96008_74+76_TPGAATASASGAAEDGACGCLPNPGTFEECHRK (UniProt O96008),-0.158
9,TLN1_Q9Y490_243_ACEFAGFQCQIQFGPHNEQK (UniProt Q9Y490),0.0484
10,TMEM214_Q6NUQ4_392_ELLSSLTECLTVDPLSASVWR (UniProt Q6NUQ4),-0.168
11,TOMM70_O94826_144_YEQAIQCYTEAISLCPTEK (UniProt O94826),-0.175
12,TMX2_Q9Y320_46_KLPPLCHGLPTQR (UniProt Q9Y320),0.186
13,TOR2A_Q5JU69_43_CTLGAFCECDFRPDLPGLECDLAQHLAGQHLAK (UniProt Q5JU69),0.451
14,TNFAIP8L1_Q8WVP5_153_INHVFGHLADCDFLAALYGPAEPYR (UniProt Q8WVP5),-0.359
15,TLN2_Q9Y4G6_1204_AVSHSLNNCVNCLPGQK (UniProt Q9Y4G6),0.0187
16,TLN1_Q9Y490_29_TMQFEPSTMVYDACR (UniProt Q9Y490),-0.185
17,TMEM192_Q8IY95_266_RLLALTSSDLGCQPSR (UniProt Q8IY95),0.126
18,TMED5_Q9Y3A6_107_KSDGVHTVETEVGDYMFCFDNTFSTISEK (UniProt Q9Y3A6),-0.241
19,TOLLIP_Q9H0E2_106_VIHCTVPPGVDSFYLEIFDER (UniProt Q9H0E2),0.265
20,TMEM33_P57088_204_RNPYCR (UniProt P57088),0.149

row,Target,probe-labelled cysteine peptide fold change
1,TMED3_Q9Y3Q3_101_GVYQFCFSNEFSTFSHK (UniProt Q9Y3Q3),0.0996
2,TOPBP1_Q92547_60_SLYICDPFSGVVFDHLKK (UniProt Q92547),0.0808
3,TOMM70_O94826_588_SEMEMAHLYSLCDAAHAQTEVAK (UniProt O94826),-0.0114
4,TNRC18_O15417_2602_NCSAASSR (UniProt O15417),0.107
5,TLN1_Q9Y490_1927_VQELGHGCAALVTK (UniProt Q9Y490),0.0376
6,TMEM30A_Q9NV96_157_ECEPYR (UniProt Q9NV96),0.13
7,TMEM87B_Q96K49_139_NENLDCNSDSQVFPSLNNK (UniProt Q96K49),-0.00696
8,TMEM106B_Q9NUM4_253_YQYVDCGR (UniProt Q9NUM4),0.0561
9,TNRC18_O15417_2921_CLVVGLEQYEQMLK (UniProt O15417),-0.173
10,TLN1_Q9Y490_2408_MVAAATNNLCEAANAAVQGHASQEK (UniProt Q9Y490),-0.193
11,TNFAIP3_P21580_158_SQEFVETGLCYDTR (UniProt P21580),-0.0429
12,TOP2B_Q02880_426_AASNCGIVESILNWVK (UniProt Q02880),-0.171
13,TMEM30A_Q9NV96_157_ECEPYRR (UniProt Q9NV96),-0.102
14,TM9SF4_Q92544_104_KCEVLCSQSNKPVTLTVEQSR (UniProt Q92544),-0.0345
15,TMPO_P42166_341_SGIQPLCPER (UniProt P42166),-0.196
16,TMEM33_P57088_232_LCLQSIAFISR (UniProt P57088),0.373
17,TLN2_Q9Y4G6_1663_ECDYSIDGINR (UniProt Q9Y4G6),-0.038
18,TMA16_Q96EY4_162_KICANDAIPK (UniProt Q96EY4),-0.344
19,TOP2B_Q02880_1018_LQTTLTCNSMVLFDHMGCLK (UniProt Q02880),-0.00569
20,TNPO2_O14787_805_LGYVCPQEVAPMLQQFIRPWCTSLR (UniProt O14787),0.17
